Laboratory results from patent publication US8741319B2, “Methods and compositions for treating anxiety disorders or symptoms thereof” (Pondera Biotechnologies Inc., priority 2009, dated 2014).
For at least one compound, name, drawing or mass did not settle the structure.

Tested on: women with chronic arthritic pain
Experiment: Celecoxib plus Receptor Switcher case studies, arthritic pain (Example 12)
Type: in vivo, human
Conditions: two women on celecoxib 200 mg daily for over 3 years

Q: With Cc1ccc(-c2cc(C(F)(F)F)nn2-c2ccc(S(N)(=O)=O)cc2)cc1 [celecoxib] as the compound, how does the arthritic pain relief read?
A: The arthritic pain relief was “greatly reduced benefits over time”.
